According to article PMC10992996:
These are yes or no findings as the source states them, for the method shown. In cells and extracts the contact can be indirect. Some entries that bind do so weakly or less than the wild type. One block for each binder: values may come before it.

By UniProt entry, the sequences of proteins in these tests, tags left out. Residues count along the entry.
UniProt Q5IJ48, residues 29-1285: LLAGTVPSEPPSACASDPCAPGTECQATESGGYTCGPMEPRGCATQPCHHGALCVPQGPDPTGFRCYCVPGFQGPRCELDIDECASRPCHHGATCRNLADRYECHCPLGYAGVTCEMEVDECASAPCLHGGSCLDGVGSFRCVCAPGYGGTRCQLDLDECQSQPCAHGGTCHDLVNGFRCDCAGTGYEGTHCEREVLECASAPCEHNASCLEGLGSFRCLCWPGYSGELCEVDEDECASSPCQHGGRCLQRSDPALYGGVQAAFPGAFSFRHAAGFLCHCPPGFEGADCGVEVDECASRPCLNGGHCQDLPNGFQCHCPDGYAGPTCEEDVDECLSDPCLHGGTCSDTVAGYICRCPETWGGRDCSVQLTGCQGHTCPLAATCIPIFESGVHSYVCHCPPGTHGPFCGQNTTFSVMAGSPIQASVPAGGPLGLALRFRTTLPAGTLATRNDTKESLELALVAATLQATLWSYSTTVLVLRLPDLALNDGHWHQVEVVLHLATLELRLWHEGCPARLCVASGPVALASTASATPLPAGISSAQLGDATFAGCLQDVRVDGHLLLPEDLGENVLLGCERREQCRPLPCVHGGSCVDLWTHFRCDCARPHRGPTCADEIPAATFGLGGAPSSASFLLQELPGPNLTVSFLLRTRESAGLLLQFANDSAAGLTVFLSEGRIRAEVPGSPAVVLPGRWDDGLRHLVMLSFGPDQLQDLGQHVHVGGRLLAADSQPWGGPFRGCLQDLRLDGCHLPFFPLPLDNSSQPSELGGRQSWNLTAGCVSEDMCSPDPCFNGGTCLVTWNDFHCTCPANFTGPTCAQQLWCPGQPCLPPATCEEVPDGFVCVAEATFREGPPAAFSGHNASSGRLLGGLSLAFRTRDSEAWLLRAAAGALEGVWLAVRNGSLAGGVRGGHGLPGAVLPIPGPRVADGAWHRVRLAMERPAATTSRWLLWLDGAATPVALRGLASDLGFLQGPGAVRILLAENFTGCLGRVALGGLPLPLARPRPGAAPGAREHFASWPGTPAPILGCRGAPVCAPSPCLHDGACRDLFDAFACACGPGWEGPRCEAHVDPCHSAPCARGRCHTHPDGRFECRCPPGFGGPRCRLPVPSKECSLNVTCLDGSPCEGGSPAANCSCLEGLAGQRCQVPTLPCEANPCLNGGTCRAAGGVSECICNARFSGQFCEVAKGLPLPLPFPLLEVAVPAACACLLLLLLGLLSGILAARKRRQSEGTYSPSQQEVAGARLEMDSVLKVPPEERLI

Assays:
Test in all cases: co-IP; HEK293T cells co-transfected pairwise with a FLAG and an HA construct, 48 h; lysis in TBS (30 mM Tris-HCl pH 7.4, 150 mM NaCl) with 0.5% Nonidet P40; FLAG-IP on ANTI-FLAG M2 Affinity Gel 60-90 min at 4°C, elution with FLAG peptide; Western blot with HA and FLAG antibodies; for mutants HA/FLAG signal in eluates relative to WT, three biological replicates
[1] = molecular target: T1, Human canonical CRB1 (Crumbs homolog 1) (human) (UniProt P82279)
T1 sequence: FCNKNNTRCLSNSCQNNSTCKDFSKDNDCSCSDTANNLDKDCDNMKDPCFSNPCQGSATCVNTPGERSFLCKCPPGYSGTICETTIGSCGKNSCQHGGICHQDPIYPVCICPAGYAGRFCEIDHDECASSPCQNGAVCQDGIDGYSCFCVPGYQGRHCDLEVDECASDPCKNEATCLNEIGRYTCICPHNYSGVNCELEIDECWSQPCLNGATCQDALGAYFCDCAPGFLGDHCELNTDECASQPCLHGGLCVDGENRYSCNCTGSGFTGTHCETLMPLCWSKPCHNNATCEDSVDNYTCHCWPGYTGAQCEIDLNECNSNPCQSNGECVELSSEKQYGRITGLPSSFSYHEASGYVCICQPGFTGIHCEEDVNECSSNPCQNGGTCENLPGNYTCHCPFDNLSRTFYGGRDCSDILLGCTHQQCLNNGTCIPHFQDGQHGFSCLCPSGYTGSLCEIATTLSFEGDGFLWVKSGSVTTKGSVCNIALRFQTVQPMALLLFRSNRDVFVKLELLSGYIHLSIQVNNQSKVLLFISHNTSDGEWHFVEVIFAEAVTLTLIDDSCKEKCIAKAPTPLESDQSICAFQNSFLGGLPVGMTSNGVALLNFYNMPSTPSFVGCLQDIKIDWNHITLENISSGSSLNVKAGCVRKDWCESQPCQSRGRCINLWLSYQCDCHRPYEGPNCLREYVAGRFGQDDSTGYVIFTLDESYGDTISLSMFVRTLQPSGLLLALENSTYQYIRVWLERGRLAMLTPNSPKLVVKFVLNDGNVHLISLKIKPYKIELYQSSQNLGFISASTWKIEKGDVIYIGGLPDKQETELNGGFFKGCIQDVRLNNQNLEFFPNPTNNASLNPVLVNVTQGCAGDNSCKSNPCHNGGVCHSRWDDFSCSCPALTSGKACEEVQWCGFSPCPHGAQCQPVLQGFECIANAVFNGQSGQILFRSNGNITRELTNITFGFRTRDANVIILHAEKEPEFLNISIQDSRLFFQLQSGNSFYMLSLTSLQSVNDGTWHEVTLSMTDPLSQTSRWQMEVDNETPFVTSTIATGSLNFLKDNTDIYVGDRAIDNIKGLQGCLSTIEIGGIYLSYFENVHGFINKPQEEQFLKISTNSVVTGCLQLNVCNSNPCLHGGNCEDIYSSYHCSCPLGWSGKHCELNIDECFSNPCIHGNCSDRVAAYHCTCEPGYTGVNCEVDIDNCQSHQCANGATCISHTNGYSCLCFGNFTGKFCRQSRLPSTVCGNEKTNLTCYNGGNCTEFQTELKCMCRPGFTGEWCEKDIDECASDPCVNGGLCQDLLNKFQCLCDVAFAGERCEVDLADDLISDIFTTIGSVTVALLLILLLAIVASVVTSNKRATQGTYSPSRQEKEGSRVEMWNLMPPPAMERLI

[2] = molecular target: T2, Human CRB3 (Crumbs homolog 3) (human) (UniProt Q9BUF7)
T2 sequence: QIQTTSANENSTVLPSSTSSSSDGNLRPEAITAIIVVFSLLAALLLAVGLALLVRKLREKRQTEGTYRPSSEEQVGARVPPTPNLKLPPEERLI

[3] = molecular target: Human canonical CRB2 (Crumbs homolog 2) (human) (UniProt Q5IJ48)
[4] = molecular target: T3, Human CRB3 (Crumbs homolog 3) (human), Q9BUF7; details: remark: other sources report otherwise
T3 chain: T2 sequence

binding [1]: binds
binding [2]: no binding
binding [3]: binds
B1: Human canonical CRB1 (Crumbs homolog 1) (protein, UniProt P82279 26-1406)
chain: T1 sequence

binding [1]: no binding
binding [3]: no binding
B2: Human CRB3 (Crumbs homolog 3) (protein, UniProt Q9BUF7-1 27-120)
chain: T2 sequence

binding [4]: no binding
B3: Human CRB3 (Crumbs homolog 3), Q9BUF7-1 27-120 (protein)
chain: T2 sequence
